Assay results reported in the supplement of paper PMC12823440, “Inhibitors supercharge kinase turnover through native proteolytic circuits” (Nature, 2025).
Some of the results follow. The calls rarely recur for the same compound in another form.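 In K562 cells expressing nanoluciferase-fused kinases, luminescence was recorded at 4 h intervals between 2 and 18 h, normalized as percent of control with DMSO at 100% and a positive control at 0%. A significant (2 sigma) signal drop marks a time point as decreased. The authors' rule for a hit is not shown and takes in more than the number of time points.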

target: EGFR_L718V (UniProt P00533); experiment: kinase-Nluc reporter destabilization hit call (1 = scored as downregulated) (binary); higher = compound decreases kinase abundance; settings: K562; 2-18 h

kinase-Nluc reporter destabilization hit call, inactive:
COc1c(O)cc(O)c2c(=O)cc(-c3ccccc3)oc12 [Wogonin] (10 µM) 0
O=C(NC[C@H](O)CO)c1ccncc1Nc1ccc(I)cc1F [Pimasertib] (10 µM) 0
N#Cc1cnc(Nc2cc(NC[C@H]3CNCCO3)c(C(F)(F)F)cn2)cn1 (10 µM) 0
CCNC(=O)Nc1ccc(-c2nc3c(c(N4CCOC[C@@H]4C)n2)CCN(C2COC2)C3)cc1 (2.5 µM) 0
COc1cc2ncnc(Nc3cc(Br)c(O)c(Br)c3)c2cc1OC (2.5 µM) 0
Nc1ccc(-c2nc3ccc(-c4nc5ccc(N)cc5[nH]4)cc3[nH]2)cc1 (10 µM) 0
CCCCC(=O)OCC(=O)[C@]1(O)Cc2c(O)c3c(c(O)c2[C@@H](O[C@H]2C[C@H](NC(=O)C(F)(F)F)[C@H](O)[C@H](C)O2)C1)C(=O)c1c(OC)cccc1C3=O [Valrubicin] (10 µM) 0
CCOC(=O)c1c(Nc2ccccc2Cl)oc(/C=C2\C=Nc3ncccc32)c1O (10 µM) 0
Nc1[nH]nc2nnc(-c3c(-c4ccccc4)nn4ccccc34)cc12 (10 µM) 0
COc1cc2nc(NC3CC3)nc(NC3CCN(C(C)C)CC3)c2cc1OC (10 µM) 0
S=C(NCc1ccc2c(c1)OCO2)N1CCN(c2ncnc3c2oc2ccccc23)CC1 [Amuvatinib] (2.5 µM) 0
CC(=O)O[C@@H]1[C@@H](OC(C)=O)[C@@H](O)[C@H](Oc2c(-c3ccc(O)cc3)oc3cc(O)cc(O)c3c2=O)O[C@H]1C (10 µM) 0
CC1=CC(=O)C(C(C)C)=C/C1=N/OC(=O)c1ccccc1C [Poloxin] (2.5 µM) 0
CO[C@@H]1[C@H](N(C)C(=O)c2ccccc2)C[C@H]2O[C@]1(C)n1c3ccccc3c3c4c(c5c6ccccc6n2c5c31)C(=O)NC4 [Midostaurin] (2.5 µM) 0
Fc1ccc(Cl)cc1-c1nc(Nc2ccncc2)c2nccnc2n1 (10 µM) 0
CN1CCC(Nc2ccc(C(=O)Nc3cc(-c4ccc5c(c4)OCO5)[nH]n3)cc2)CC1 (10 µM) 0
CN1CCC(Nc2nc(Nc3ccc(Oc4ccccc4)cc3)c3c(=O)[nH]cc(Br)c3n2)CC1 (2.5 µM) 0
O=C(COc1ccc(Cl)cc1)NC1CCC(NC(=O)COc2ccc(Cl)cc2)CC1 (stereo not drawn) [ISRIB (trans-isomer)] (10 µM) 0
Cc1ccc(C2CC(=O)NC(SCC(=O)Nc3nccs3)=C2C#N)cc1 (stereo not given) [Necrostatin-34] (10 µM) 0
CCCCNc1ncc(C(=O)NCc2ccc(-n3ccnc3)cc2)c(NC2CCC(O)CC2)n1 (stereo not given) (10 µM) 0
O=C1NC(=O)C(Cc2c[nH]c3c(Cl)cccc23)N1 (stereo not given) [Necroptosis-IN-1] (10 µM) 0
O=C1C=CC2=C3c4cc(O)c(O)cc4CC3(O)COC2=C1O (stereo not given) [Hematein] (10 µM) 0
NC(=O)c1cnc(N[C@@H]2CCCC[C@@H]2N)nc1Nc1cccc(-n2nccn2)c1 (2.5 µM) 0
COc1cc2nc(-c3cc(F)ccc3O)nc(N[C@@H]3CNC[C@H]3C(C)(C)O)c2cc1OC (2.5 µM) 0
CN1CCN(Cc2ccc(-c3cn(C4CCC(O)CC4)c4nc(NCCC5CC5)ncc34)cc2)CC1 (stereo not given) (2.5 µM) 0
O=S(=O)(c1ccc(O)cc1O)N1Cc2cc(O)cc(O)c2C1 (10 µM) 0

target: EGFR_L858R (UniProt P00533); experiment: as above; settings: K562; 2-18 h

kinase-Nluc reporter destabilization hit call, inactive:
CC(C)Cn1ncc2cc(Oc3ccc(F)cc3F)c(C(=O)NCCN(C)C)cc21 [p38α inhibitor 1] (10 µM) 0
CNc1cc2c(Nc3cccc(Br)c3)ncnc2cn1 (10 µM) 0
CN1C(=O)[C@@H](NC(=O)c2cc(Cc3ccccc3)on2)COc2ccccc21 (10 µM) 0
CC(C1CC1)n1cnc2c(NCc3cccc(C(F)(F)F)c3)nc(NCCN(C)C)nc21 (stereo not given) (10 µM) 0
Cc1n[nH]c2ncc(C(=O)N3CCC[C@H]3c3ccc(Cl)cc3)cc12 (10 µM) 0
COc1ccc(Br)c(C=O)c1O [6-Bromo-2-hydroxy-3-methoxybenzaldehyde] (10 µM) 0
Oc1ccc(-c2cnc3ccc(NCc4ccco4)nn23)cc1 [IRAK inhibitor 2] (2.5 µM) 0
C[C@H](Nc1cc2c(-c3ccc4c(c3)OCO4)noc2cn1)c1ccccc1 (10 µM) 0
Nc1ccc(C(=O)Nc2cccc(-c3nc(N4CCOCC4)c4oc5ncccc5c4n3)c2)cn1 (10 µM) 0
CCOC(=O)c1c(N2CCc3ccc(OC)cc3C2)oc(C=C2C=Nc3ncccc32)c1O (10 µM) 0
Cc1ncc(-c2cc(F)c(O)c(F)c2)cc1-c1cc(F)c(O)c(F)c1 (10 µM) 0
N=C(NC(=N)N1CCCC1)Nc1ccc(OC(F)(F)F)cc1 (10 µM) 0
CC1(C)CN(C(=O)c2ccc(-c3cccc4nc(NC(=O)C5CC5)nn34)cc2)C1 [Solcitinib] (10 µM) 0
COc1c(O)cc(O)c2c(=O)cc(-c3ccccc3)oc12 [Wogonin] (10 µM) 0
O=C(NC[C@H](O)CO)c1ccncc1Nc1ccc(I)cc1F [Pimasertib] (10 µM) 0
N#Cc1cnc(Nc2cc(NC[C@H]3CNCCO3)c(C(F)(F)F)cn2)cn1 (10 µM) 0
CCNC(=O)Nc1ccc(-c2nc3c(c(N4CCOC[C@@H]4C)n2)CCN(C2COC2)C3)cc1 (2.5 µM) 0
COc1cc2ncnc(Nc3cc(Br)c(O)c(Br)c3)c2cc1OC (2.5 µM) 0
Nc1ccc(-c2nc3ccc(-c4nc5ccc(N)cc5[nH]4)cc3[nH]2)cc1 (10 µM) 0
CCCCC(=O)OCC(=O)[C@]1(O)Cc2c(O)c3c(c(O)c2[C@@H](O[C@H]2C[C@H](NC(=O)C(F)(F)F)[C@H](O)[C@H](C)O2)C1)C(=O)c1c(OC)cccc1C3=O [Valrubicin] (10 µM) 0
CCOC(=O)c1c(Nc2ccccc2Cl)oc(/C=C2\C=Nc3ncccc32)c1O (10 µM) 0
Nc1[nH]nc2nnc(-c3c(-c4ccccc4)nn4ccccc34)cc12 (10 µM) 0
COc1cc2nc(NC3CC3)nc(NC3CCN(C(C)C)CC3)c2cc1OC (10 µM) 0
S=C(NCc1ccc2c(c1)OCO2)N1CCN(c2ncnc3c2oc2ccccc23)CC1 [Amuvatinib] (2.5 µM) 0
CC(=O)O[C@@H]1[C@@H](OC(C)=O)[C@@H](O)[C@H](Oc2c(-c3ccc(O)cc3)oc3cc(O)cc(O)c3c2=O)O[C@H]1C (10 µM) 0
CC1=CC(=O)C(C(C)C)=C/C1=N/OC(=O)c1ccccc1C [Poloxin] (2.5 µM) 0
CO[C@@H]1[C@H](N(C)C(=O)c2ccccc2)C[C@H]2O[C@]1(C)n1c3ccccc3c3c4c(c5c6ccccc6n2c5c31)C(=O)NC4 [Midostaurin] (2.5 µM) 0
Fc1ccc(Cl)cc1-c1nc(Nc2ccncc2)c2nccnc2n1 (10 µM) 0
CN1CCC(Nc2ccc(C(=O)Nc3cc(-c4ccc5c(c4)OCO5)[nH]n3)cc2)CC1 (10 µM) 0
CN1CCC(Nc2nc(Nc3ccc(Oc4ccccc4)cc3)c3c(=O)[nH]cc(Br)c3n2)CC1 (2.5 µM) 0
O=C(COc1ccc(Cl)cc1)NC1CCC(NC(=O)COc2ccc(Cl)cc2)CC1 (stereo not drawn) [ISRIB (trans-isomer)] (10 µM) 0
Cc1ccc(C2CC(=O)NC(SCC(=O)Nc3nccs3)=C2C#N)cc1 (stereo not given) [Necrostatin-34] (10 µM) 0
CCCCNc1ncc(C(=O)NCc2ccc(-n3ccnc3)cc2)c(NC2CCC(O)CC2)n1 (stereo not given) (10 µM) 0
O=C1NC(=O)C(Cc2c[nH]c3c(Cl)cccc23)N1 (stereo not given) [Necroptosis-IN-1] (10 µM) 0
O=C1C=CC2=C3c4cc(O)c(O)cc4CC3(O)COC2=C1O (stereo not given) [Hematein] (10 µM) 0
NC(=O)c1cnc(N[C@@H]2CCCC[C@@H]2N)nc1Nc1cccc(-n2nccn2)c1 (2.5 µM) 0
COc1cc2nc(-c3cc(F)ccc3O)nc(N[C@@H]3CNC[C@H]3C(C)(C)O)c2cc1OC (2.5 µM) 0
CN1CCN(Cc2ccc(-c3cn(C4CCC(O)CC4)c4nc(NCCC5CC5)ncc34)cc2)CC1 (stereo not given) (2.5 µM) 0
O=S(=O)(c1ccc(O)cc1O)N1Cc2cc(O)cc(O)c2C1 (10 µM) 0
